Assay results reported in article PMC9262955.
No constants are given. Whether binding was seen depends on the method and setting. For part of these data: Binding seen in cells or lysates may run through a third protein. Some binding calls cover weakened binding; strength is not graded here.

Protein sequences, listed by entry. Tags and fused reporters are not part of them.
UniProt Q9I1W9: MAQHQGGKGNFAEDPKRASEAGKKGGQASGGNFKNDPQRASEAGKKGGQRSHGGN
UniProt Q9I1T1: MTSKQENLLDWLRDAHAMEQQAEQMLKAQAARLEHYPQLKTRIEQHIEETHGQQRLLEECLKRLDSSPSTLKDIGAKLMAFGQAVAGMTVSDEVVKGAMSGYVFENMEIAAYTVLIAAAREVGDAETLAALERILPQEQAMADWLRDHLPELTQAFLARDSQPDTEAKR

Legend:
[1] = molecular target: PA2146 fused to the T25 fragment of adenylate cyclase (pKT25) (P. aeruginosa PAO1) (UniProt Q9I1W9); test: two-hybrid; BACTH in E. coli DHM1, quantified by β-galactosidase activity (Miller assay)
[2] = molecular target: PA2146 fused to the T25 fragment of adenylate cyclase (pKT25) (P. aeruginosa PAO1) (UniProt Q9I1W9); test: two-hybrid; bacterial adenylate cyclase two-hybrid (BACTH) in E. coli DHM1; T18 and T25 fusions co-expressed; spotted on LB agar with ampicillin, kanamycin, IPTG and X-Gal, 30 °C; blue colonies
[3] = molecular target: V5-tagged PA2146 (P. aeruginosa PAO1) (UniProt Q9I1W9); test: co-IP; total protein cell extracts (200 µg) of cells co-producing V5-tagged PA2146 and HA-tagged PA2184; immunoprecipitation with immobilized anti-V5 antibodies (2 µg/mL), immunoblot with anti-HA

Substance	binding [1]	binding [2]	binding [3]
PA2184 fused to the T18 fragment of adenylate cyclase (pUT18C) (from UniProt Q9I1T1 1-169)	binds	binds	–
HA-tagged PA2184 (from UniProt Q9I1T1 1-169)	–	–	binds
